# This is one part of the list.
# How the values were obtained:
# Experiment in all cases: glycan array binding signal (z-score within array); higher = stronger binding
# Settings in all cases: glycan notation: IUPAC condensed, linker removed
# [1] = molecular target: Neu5Ac(a2-3)Gal(b1-4)GlcNAc(b1-2)[Neu5Ac(a2-3)Gal(b1-4)GlcNAc(b1-4)]Man(a1-3)[GlcNAc(b1-4)][Neu5Ac(a2-3)Gal(b1-4)GlcNAc(b1-2)[Neu5Ac(a2-3)Gal(b1-4)GlcNAc(b1-6)]Man(a1-6)]Man(b1-4)GlcNAc(b1-4)GlcNAc
# Procedure, shortened: (§1)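 The binding signal is a Z-score computed within each array and averaged over linkers. Arrays of the same protein sequence at different concentrations or buffers were also averaged together. Data originate from 3228 arrays in the Consortium for Functional Glycomics database, kept only where the protein sequence was available.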
# [2] = molecular target: Neu5Ac(a2-3)Gal(b1-4)GlcNAc(b1-2)[Neu5Ac(a2-3)Gal(b1-4)GlcNAc(b1-4)]Man(a1-3)[GlcNAc(b1-4)][Neu5Ac(a2-3)Gal(b1-4)GlcNAc(b1-4)Man(a1-6)]Man(b1-4)GlcNAc(b1-4)GlcNAc
# Procedure, shortened: as §1
# [3] = molecular target: Neu5Ac(a2-3)Gal(b1-4)GlcNAc(b1-2)[Neu5Ac(a2-3)Gal(b1-4)GlcNAc(b1-6)]Man(a1-6)[Neu5Ac(a2-3)Gal(b1-4)GlcNAc(b1-2)Man(a1-3)][GlcNAc(b1-4)]Man(b1-4)GlcNAc(b1-4)GlcNAc
# Procedure, shortened: as §1
# [4] = molecular target: Neu5Ac(a2-3)Gal(b1-4)GlcNAc(b1-3)Gal
# Procedure, shortened: as §1
# [5] = molecular target: Neu5Ac(a2-3)Gal(b1-4)GlcNAc(b1-3)Gal(b1-3)GlcNAc
# Procedure, shortened: as §1
# [6] = molecular target: Neu5Ac(a2-3)Gal(b1-4)GlcNAc(b1-3)Gal(b1-4)GlcNAc
# Procedure, shortened: as §1
# [7] = molecular target: Neu5Ac(a2-3)Gal(b1-4)GlcNAc(b1-3)Gal(b1-4)GlcNAc(b1-2)Man(a1-3)[Neu5Ac(a2-3)Gal(b1-4)GlcNAc(b1-3)Gal(b1-4)GlcNAc(b1-2)Man(a1-6)]Man(b1-4)GlcNAc(b1-4)GlcNAc
# Procedure, shortened: as §1
# [8] = molecular target: Neu5Ac(a2-3)Gal(b1-4)GlcNAc(b1-3)Gal(b1-4)GlcNAc(b1-3)Gal(b1-4)GlcNAc
# Procedure, shortened: as §1
# [9] = molecular target: Neu5Ac(a2-3)Gal(b1-4)GlcNAc(b1-3)Gal(b1-4)GlcNAc(b1-3)Gal(b1-4)GlcNAc(b1-2)Man(a1-3)[Neu5Ac(a2-3)Gal(b1-4)GlcNAc(b1-3)Gal(b1-4)GlcNAc(b1-3)Gal(b1-4)GlcNAc(b1-2)Man(a1-6)]GalNAc
# Procedure, shortened: as §1
# [10] = molecular target: Neu5Ac(a2-3)Gal(b1-4)GlcNAc(b1-3)Gal(b1-4)GlcNAc(b1-3)GalNAc
# Procedure, shortened: as §1
# [11] = molecular target: Neu5Ac(a2-3)Gal(b1-4)GlcNAc(b1-3)Gal(b1-4)GlcNAc(b1-3)[Neu5Ac(a2-3)Gal(b1-4)GlcNAc(b1-3)Gal(b1-4)GlcNAc(b1-6)]GalNAc
# Procedure, shortened: as §1
# [12] = molecular target: Neu5Ac(a2-3)Gal(b1-4)GlcNAc(b1-3)Gal(b1-4)GlcNAc(b1-6)[Gal(b1-3)]GalNAc
# Procedure, shortened: as §1
# [13] = molecular target: Neu5Ac(a2-3)Gal(b1-4)GlcNAc(b1-3)Gal(b1-4)[Fuc(a1-3)]GlcNAc
# Procedure, shortened: as §1
# [14] = molecular target: Neu5Ac(a2-3)Gal(b1-4)GlcNAc(b1-3)GalNAc
# Procedure, shortened: as §1
# [15] = molecular target: Neu5Ac(a2-3)Gal(b1-4)GlcNAc(b1-3)[Neu5Ac(a2-3)Gal(b1-4)GlcNAc(b1-6)]GalNAc
# Procedure, shortened: as §1
# [16] = molecular target: Neu5Ac(a2-3)Gal(b1-4)GlcNAc(b1-6)GalNAc
# Procedure, shortened: as §1
# [17] = molecular target: Neu5Ac(a2-3)Gal(b1-4)GlcNAc(b1-6)[Gal(b1-3)]GalNAc
# Procedure, shortened: as §1
# [18] = molecular target: Neu5Ac(a2-3)Gal(b1-4)GlcNAc(b1-6)[Neu5Ac(a2-3)Gal(b1-3)]GalNAc
# Procedure, shortened: as §1
# [19] = molecular target: Neu5Ac(a2-3)Gal(b1-4)GlcNAc6S
# Procedure, shortened: as §1
# [20] = molecular target: Neu5Ac(a2-3)Gal(b1-4)[Fuc(a1-3)]GlcNAc
# Procedure, shortened: as §1
# [21] = molecular target: Neu5Ac(a2-3)Gal(b1-4)[Fuc(a1-3)]GlcNAc(b1-2)Man
# Procedure, shortened: as §1
# [22] = molecular target: Neu5Ac(a2-3)Gal(b1-4)[Fuc(a1-3)]GlcNAc(b1-3)Gal
# Procedure, shortened: as §1
# [23] = molecular target: Neu5Ac(a2-3)Gal(b1-4)[Fuc(a1-3)]GlcNAc(b1-3)Gal(b1-4)GlcNAc
# Procedure, shortened: as §1
# [24] = molecular target: Neu5Ac(a2-3)Gal(b1-4)[Fuc(a1-3)]GlcNAc(b1-3)Gal(b1-4)[Fuc(a1-3)]GlcNAc(b1-3)Gal(b1-4)[Fuc(a1-3)]GlcNAc
# Procedure, shortened: as §1
# [25] = molecular target: Neu5Ac(a2-3)Gal(b1-4)[Fuc(a1-3)]GlcNAc(b1-3)GalNAc
# Procedure, shortened: as §1
# [26] = molecular target: Neu5Ac(a2-3)Gal(b1-4)[Fuc(a1-3)]GlcNAc(b1-6)[Gal(b1-3)]GalNAc
# Procedure, shortened: as §1
# [27] = molecular target: Neu5Ac(a2-3)Gal(b1-4)[Fuc(a1-3)]GlcNAc(b1-6)[Neu5Ac(a2-3)Gal(b1-3)]GalNAc
# Procedure, shortened: as §1
# [28] = molecular target: Neu5Ac(a2-3)Gal(b1-4)[Fuc(a1-3)]GlcNAc6S
# Procedure, shortened: as §1
# [29] = molecular target: Neu5Ac(a2-3)Gal6S(b1-4)GlcNAc
# Procedure, shortened: as §1
# [30] = molecular target: Neu5Ac(a2-3)Gal6S(b1-4)[Fuc(a1-3)]GlcNAc
# Procedure, shortened: as §1
# [31] = molecular target: Neu5Ac(a2-3)GalNAc
# Procedure, shortened: as §1
# [32] = molecular target: Neu5Ac(a2-3)GalNAc(b1-4)GlcNAc
# Procedure, shortened: as §1
# [33] = molecular target: Neu5Ac(a2-3)[GalNAc(b1-4)]Gal(b1-4)Glc
# Procedure, shortened: as §1
# [34] = molecular target: Neu5Ac(a2-3)[GalNAc(b1-4)]Gal(b1-4)GlcNAc
# Procedure, shortened: as §1
# [35] = molecular target: Neu5Ac(a2-3)[GalNAc(b1-4)]Gal(b1-4)GlcNAc(b1-3)GalNAc
# Procedure, shortened: as §1
# [36] = molecular target: Neu5Ac(a2-3)[Neu5Ac(a2-6)]GalNAc
# Procedure, shortened: as §1
# [37] = molecular target: Neu5Ac(a2-6)Gal
# Procedure, shortened: as §1
binder,measurement,setting,value
Clec39 (Caenorhabditis elegans) (protein) MTSFYDNSSSSSKPVPLKTSRAQKIQILIFDNWKLILYGAISTLILVLAIMFSTLFFALPAANCDENSEPTKYYTTNAEITTTITTTNQKTTSTASSHLTTISSSATQIYSESSSSSTSQSTFTQSPPEISTTTIAPSDFSCQHGFTLVNNKCWKLVTSNQARPDADKICNGYGGATLFSIKSEQDNRAMIHFVKGQDIDFLWSGLLCSAGEPISCIWDIENGSTANYSNFADGFPNIVYGNCVYFITSGDEAGQWGNEQCGQVMNFVCELPATFQGKDGCKNNYEKSCYLRFDLNLTVPQAQNFCLEKCANLVSIHSANEVRFIMTIYDFIGEILIGALAPAQDFIYWLDGTPANYNNLKFFYNSTCVHMTVAPGMQNVGKWFTRFCTETGKFLCKRSIKNSCT,glycan array binding signal (z-score),[1],0.721
same,glycan array binding signal (z-score),[2],0.098
same,glycan array binding signal (z-score),[3],0.185
same,glycan array binding signal (z-score),[4],-0.762
same,glycan array binding signal (z-score),[5],-0.058
same,glycan array binding signal (z-score),[6],-0.74
same,glycan array binding signal (z-score),[7],1.74
same,glycan array binding signal (z-score),[8],-0.416
same,glycan array binding signal (z-score),[9],0.509
same,glycan array binding signal (z-score),[10],-0.485
same,glycan array binding signal (z-score),[11],-0.101
same,glycan array binding signal (z-score),[12],-0.438
same,glycan array binding signal (z-score),[13],-1.5
same,glycan array binding signal (z-score),[14],1.61
same,glycan array binding signal (z-score),[15],1.14
same,glycan array binding signal (z-score),[16],-0.522
same,glycan array binding signal (z-score),[17],1.06
same,glycan array binding signal (z-score),[18],-0.555
same,glycan array binding signal (z-score),[19],0.418
same,glycan array binding signal (z-score),[20],-0.235
same,glycan array binding signal (z-score),[21],-0.505
same,glycan array binding signal (z-score),[22],-0.207
same,glycan array binding signal (z-score),[23],1.57
same,glycan array binding signal (z-score),[24],-0.512
same,glycan array binding signal (z-score),[25],4.34
same,glycan array binding signal (z-score),[26],1.91
same,glycan array binding signal (z-score),[27],0.446
same,glycan array binding signal (z-score),[28],-0.929
same,glycan array binding signal (z-score),[29],1.54
same,glycan array binding signal (z-score),[30],-1.24
same,glycan array binding signal (z-score),[31],-0.835
same,glycan array binding signal (z-score),[32],-0.703
same,glycan array binding signal (z-score),[33],-0.207
same,glycan array binding signal (z-score),[34],-0.404
same,glycan array binding signal (z-score),[35],-0.314
same,glycan array binding signal (z-score),[36],0.091
same,glycan array binding signal (z-score),[37],-1.34

# 2 entries drawn at random from those above, as already listed:
binder,measurement,setting,value
Clec39 (Caenorhabditis elegans) (protein) MTSFYDNSSSSSKPVPLKTSRAQKIQILIFDNWKLILYGAISTLILVLAIMFSTLFFALPAANCDENSEPTKYYTTNAEITTTITTTNQKTTSTASSHLTTISSSATQIYSESSSSSTSQSTFTQSPPEISTTTIAPSDFSCQHGFTLVNNKCWKLVTSNQARPDADKICNGYGGATLFSIKSEQDNRAMIHFVKGQDIDFLWSGLLCSAGEPISCIWDIENGSTANYSNFADGFPNIVYGNCVYFITSGDEAGQWGNEQCGQVMNFVCELPATFQGKDGCKNNYEKSCYLRFDLNLTVPQAQNFCLEKCANLVSIHSANEVRFIMTIYDFIGEILIGALAPAQDFIYWLDGTPANYNNLKFFYNSTCVHMTVAPGMQNVGKWFTRFCTETGKFLCKRSIKNSCT,glycan array binding signal (z-score),[22],-0.207
same,glycan array binding signal (z-score),[21],-0.505
